Laboratory results taken from article PMC10742386.
No constants are given. Whether binding was seen depends on the method and setting. In cells and extracts the contact can be indirect. Some results given as binding are weak or reduced against the parent protein; the word gives no strength.

Chains of the proteins cited; added tags and fusions are not shown.
UniProt O60479: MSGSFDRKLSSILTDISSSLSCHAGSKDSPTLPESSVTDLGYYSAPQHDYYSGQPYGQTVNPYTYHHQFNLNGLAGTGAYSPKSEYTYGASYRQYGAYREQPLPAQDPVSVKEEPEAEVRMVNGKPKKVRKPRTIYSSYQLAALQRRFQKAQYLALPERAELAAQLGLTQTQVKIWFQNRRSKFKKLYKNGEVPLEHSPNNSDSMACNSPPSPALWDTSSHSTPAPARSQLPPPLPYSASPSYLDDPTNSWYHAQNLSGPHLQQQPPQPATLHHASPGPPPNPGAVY

Target: T1, GCM1 (human) (UniProt Q9NP62)
T1 sequence: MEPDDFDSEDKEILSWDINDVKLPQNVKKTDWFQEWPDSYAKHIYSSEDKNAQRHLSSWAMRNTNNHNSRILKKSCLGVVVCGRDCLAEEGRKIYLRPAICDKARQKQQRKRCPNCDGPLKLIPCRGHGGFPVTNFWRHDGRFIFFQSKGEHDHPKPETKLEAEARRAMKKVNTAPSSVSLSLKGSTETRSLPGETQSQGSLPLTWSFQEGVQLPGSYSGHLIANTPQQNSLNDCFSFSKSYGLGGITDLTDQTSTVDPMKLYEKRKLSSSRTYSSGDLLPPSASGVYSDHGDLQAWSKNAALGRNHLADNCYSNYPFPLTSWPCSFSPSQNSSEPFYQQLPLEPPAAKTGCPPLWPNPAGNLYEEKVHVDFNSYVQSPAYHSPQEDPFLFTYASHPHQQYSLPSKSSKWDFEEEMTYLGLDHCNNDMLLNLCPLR
Assay: co-IP; Co-IP in EVTs and STs derived from hTSCs; which protein was precipitated is not told in the text shown

binding: binds
Substance: DLX3 (from UniProt O60479 1-287)
